One substance from publication PMC8591801 can be followed below.

Amino acid sequences for entries named in this document (tags omitted).
UniProt Q14258: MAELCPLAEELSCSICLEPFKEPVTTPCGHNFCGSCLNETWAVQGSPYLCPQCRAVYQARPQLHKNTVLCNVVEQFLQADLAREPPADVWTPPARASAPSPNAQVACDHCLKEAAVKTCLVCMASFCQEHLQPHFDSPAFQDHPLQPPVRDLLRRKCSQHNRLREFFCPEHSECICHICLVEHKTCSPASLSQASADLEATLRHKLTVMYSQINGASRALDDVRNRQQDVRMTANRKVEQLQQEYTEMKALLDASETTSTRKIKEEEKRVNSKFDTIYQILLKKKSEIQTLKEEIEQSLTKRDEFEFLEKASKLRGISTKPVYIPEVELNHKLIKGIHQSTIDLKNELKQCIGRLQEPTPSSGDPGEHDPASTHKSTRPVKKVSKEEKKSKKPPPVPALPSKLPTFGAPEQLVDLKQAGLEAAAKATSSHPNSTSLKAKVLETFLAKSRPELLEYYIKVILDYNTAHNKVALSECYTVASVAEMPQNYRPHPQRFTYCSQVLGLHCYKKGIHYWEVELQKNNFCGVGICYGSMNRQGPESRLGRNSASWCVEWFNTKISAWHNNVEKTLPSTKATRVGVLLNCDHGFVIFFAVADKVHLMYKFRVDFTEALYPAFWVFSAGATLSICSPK

This experiment concerns the target T1, Flag-CPEB4 (cytoplasmic polyadenylation element binding protein CPEB4) (human (cDNA from HEK293T cells)) (UniProt Q17RY0).
T1 sequence: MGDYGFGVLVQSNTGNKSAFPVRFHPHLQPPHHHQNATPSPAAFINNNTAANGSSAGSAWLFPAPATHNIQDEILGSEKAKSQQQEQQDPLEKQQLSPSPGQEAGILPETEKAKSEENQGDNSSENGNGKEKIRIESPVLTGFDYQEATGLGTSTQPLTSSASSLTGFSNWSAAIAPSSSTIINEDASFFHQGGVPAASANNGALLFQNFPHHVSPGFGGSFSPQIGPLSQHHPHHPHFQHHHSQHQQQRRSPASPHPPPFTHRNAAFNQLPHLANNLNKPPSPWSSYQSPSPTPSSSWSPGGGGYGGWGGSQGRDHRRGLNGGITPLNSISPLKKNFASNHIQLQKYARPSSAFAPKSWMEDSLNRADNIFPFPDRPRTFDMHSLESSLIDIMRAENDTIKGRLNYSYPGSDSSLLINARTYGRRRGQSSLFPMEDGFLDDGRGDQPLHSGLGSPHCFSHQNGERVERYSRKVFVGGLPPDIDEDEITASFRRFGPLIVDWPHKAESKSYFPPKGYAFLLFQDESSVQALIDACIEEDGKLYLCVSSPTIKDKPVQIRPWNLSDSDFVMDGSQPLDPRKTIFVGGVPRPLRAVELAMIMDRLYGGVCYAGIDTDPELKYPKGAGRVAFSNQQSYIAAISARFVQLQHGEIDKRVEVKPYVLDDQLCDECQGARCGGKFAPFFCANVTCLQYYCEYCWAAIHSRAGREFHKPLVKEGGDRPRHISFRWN
Kind of experiment: co-IP; 293T cells transfected with the indicated constructs; lysates precleared, primary antibody with protein A/G agarose beads at 4 °C overnight, western blot; also with RNase A treatment and with cDOPEY2 silencing. (In general: In western blotting, separated proteins are transferred to a membrane and probed.)

No constants are given. Whether binding was seen depends on the method and setting. Binding seen in cells or lysates may run through a third protein. Some binding calls cover weakened binding; strength is not graded here. Sequences can lack the tags named with a protein.

In the case of “myc-TRIM25 (E3 ligase TRIM25, wild type) (from UniProt Q14258 1-630) (enzyme)”, the binding result is “binds”.
